PubChem BioAssay AID1224830 | NIAID, 2016
Assay: 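Genes whose knock-down alters the TNF-alpha reporter response to LPS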 (primary screen). Cell system: human THP-1 monocytic leukaemia cells, TNF dual-luciferase reporter clone, PMA-differentiated to macrophage-like cells. Reagent: siRNA pool against human genes, 50 nM. Duration: LPS for 4 h, given about 3 days after siRNA transfection. Conditions: bacterial LPS (TLR4 ligand), 10 ng/ml. Read-out: 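TNF firefly reporter luminescence divided by renilla, normalised to the plate median, then turned into a robust z-score for each replicate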. Reading the numbers: TNF reporter robust z-score: higher = stronger TNF reporter response to LPS. Rule for the call: 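a well is active when its z-score exceeds 2.8 or falls below -1.5; control wells carry no call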.
In all, the deposit lists about 18,000 reagents; below is an unselected part. About 2,900 of all reagents (16%) count as active. 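Calls are made per well; low scores hint the gene aids the LPS response, high scores that it dampens it.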 Repeated entries: four replicate wells of each siRNA pool. Reagent sequences are not shown.

target | PubChem SID | TNF reporter robust z-score | activity call
MDN1 | SID315455062 | -0.83 | inactive
MDN1 | SID315455062 | -0.38 | inactive
MDN1 | SID315455062 | -0.73 | inactive
MDN1 | SID315455062 | -0.35 | inactive
MTNR1B | SID315450072 | -1.15 | inactive
MTNR1B | SID315450072 | -0.25 | inactive
MTNR1B | SID315450072 | -0.61 | inactive
MTNR1B | SID315450072 | -0.91 | inactive
TMEM132D | SID315461513 | 0.54 | inactive
TMEM132D | SID315461513 | 0.95 | inactive
TMEM132D | SID315461513 | 0.35 | inactive
TMEM132D | SID315461513 | 1.64 | inactive
HHIPL1 | SID315460359 | -1.63 | active
HHIPL1 | SID315460359 | -0.47 | inactive
HHIPL1 | SID315460359 | -1.03 | inactive
TULP4 | SID315458215 | 1.34 | inactive
TULP4 | SID315458215 | -0.15 | inactive
TULP4 | SID315458215 | 3.31 | active
TULP4 | SID315458215 | 3.01 | active
TMUB2 | SID315459206 | 1.14 | inactive
TMUB2 | SID315459206 | 0.18 | inactive
TMUB2 | SID315459206 | 0.11 | inactive
TMUB2 | SID315459206 | 0.26 | inactive
KLF9 | SID315447594 | 1.31 | inactive
KLF9 | SID315447594 | 1.09 | inactive
KLF9 | SID315447594 | 0.61 | inactive
KLF9 | SID315447594 | 1.5 | inactive
TARS3 | SID315461579 | -0.8 | inactive
TARS3 | SID315461579 | -0.04 | inactive
TARS3 | SID315461579 | -0.99 | inactive
TARS3 | SID315461579 | -1.08 | inactive
NTRK3 | SID315450321 | 0.88 | inactive
NTRK3 | SID315450321 | 1.96 | inactive
NTRK3 | SID315450321 | 1.28 | inactive
NTRK3 | SID315450321 | -0.44 | inactive
FLAD1 | SID315459740 | 1.05 | inactive
FLAD1 | SID315459740 | 0.69 | inactive
FLAD1 | SID315459740 | 1.02 | inactive
FLAD1 | SID315459740 | 1.49 | inactive
TRPM3 | SID315459635 | 0.15 | inactive
TRPM3 | SID315459635 | 3.25 | active
TRPM3 | SID315459635 | 3.71 | active
TRPM3 | SID315459635 | 1.06 | inactive
SLC26A10P | SID315459070 | 1.66 | inactive
SLC26A10P | SID315459070 | 2.65 | inactive
SLC26A10P | SID315459070 | 2.56 | inactive
SLC26A10P | SID315459070 | 3.67 | active
OR51A4 | SID315464800 | -0.28 | inactive
OR51A4 | SID315464800 | -0.19 | inactive
OR51A4 | SID315464800 | -1.55 | active
OR51A4 | SID315464800 | -0.18 | inactive
MPC2 | SID315455522 | -1.5 | inactive
MPC2 | SID315455522 | 1.25 | inactive
MPC2 | SID315455522 | 0.29 | inactive
MPC2 | SID315455522 | -1.11 | inactive
SDR16C5 | SID315462949 | 0.24 | inactive
SDR16C5 | SID315462949 | -0.06 | inactive
SDR16C5 | SID315462949 | -0.27 | inactive
SDR16C5 | SID315462949 | 0.81 | inactive
BDP1 | SID315457880 | -0.52 | inactive
BDP1 | SID315457880 | 0.67 | inactive
BDP1 | SID315457880 | -0.12 | inactive
BDP1 | SID315457880 | 0.11 | inactive
BAGE3 | SID315460661 | -1.2 | inactive
BAGE3 | SID315460661 | -0.09 | inactive
BAGE3 | SID315460661 | -1.06 | inactive
BAGE3 | SID315460661 | -0.71 | inactive
PRPF39 | SID315457347 | -0.21 | inactive
PRPF39 | SID315457347 | -0.05 | inactive
PRPF39 | SID315457347 | -0.24 | inactive
PRPF39 | SID315457347 | -0.19 | inactive
SLC5A8 | SID315462707 | -0.81 | inactive
SLC5A8 | SID315462707 | -0.72 | inactive
SLC5A8 | SID315462707 | -0.85 | inactive
SLC5A8 | SID315462707 | -0.78 | inactive
HOXC10 | SID315449290 | -1.14 | inactive
HOXC10 | SID315449290 | -0.48 | inactive
HOXC10 | SID315449290 | -1.53 | active
HOXC10 | SID315449290 | -1.42 | inactive
ADCY6 | SID315447189 | 0.71 | inactive
ADCY6 | SID315447189 | 0.03 | inactive
ADCY6 | SID315447189 | 0.46 | inactive
ADCY6 | SID315447189 | 0.96 | inactive
ELK3 | SID315448495 | 0.32 | inactive
ELK3 | SID315448495 | 1.1 | inactive
ELK3 | SID315448495 | 0.04 | inactive
ELK3 | SID315448495 | 0.95 | inactive
TMSB15A | SID315454532 | -1.49 | inactive
TMSB15A | SID315454532 | -1.37 | inactive
TMSB15A | SID315454532 | -1.55 | active
TMSB15A | SID315454532 | -1.14 | inactive
CER1 | SID315453217 | 0.45 | inactive
CER1 | SID315453217 | 0.12 | inactive
CER1 | SID315453217 | -0.02 | inactive
CER1 | SID315453217 | -0.8 | inactive
PRTN3 | SID315450868 | 1.71 | inactive
PRTN3 | SID315450868 | 2.98 | active
PRTN3 | SID315450868 | 0.62 | inactive
PRTN3 | SID315450868 | -0.25 | inactive
HACD2 | SID315463082 | 0.33 | inactive
HACD2 | SID315463082 | 1.15 | inactive
HACD2 | SID315463082 | 0.44 | inactive
HACD2 | SID315463082 | 0.1 | inactive
TFEB | SID315452355 | 1.62 | inactive
TFEB | SID315452355 | 4.06 | active
TFEB | SID315452355 | 3.35 | active
TFEB | SID315452355 | 1.98 | inactive
METTL21C | SID315462975 | -0.16 | inactive
METTL21C | SID315462975 | 0.13 | inactive
METTL21C | SID315462975 | -0.79 | inactive
METTL21C | SID315462975 | 0.49 | inactive
ARID4B | SID315456875 | -0.71 | inactive
ARID4B | SID315456875 | 0.09 | inactive
ARID4B | SID315456875 | 0.42 | inactive
ARID4B | SID315456875 | 1.02 | inactive
DAPK2 | SID315455363 | -0.68 | inactive
DAPK2 | SID315455363 | -0.09 | inactive
DAPK2 | SID315455363 | -0.74 | inactive
DAPK2 | SID315455363 | -1.18 | inactive
GOLIM4 | SID315456036 | 0.14 | inactive
GOLIM4 | SID315456036 | -0.13 | inactive
GOLIM4 | SID315456036 | 0.45 | inactive
GOLIM4 | SID315456036 | -0.18 | inactive
FANCE | SID315448624 | -0.94 | inactive
FANCE | SID315448624 | -1.32 | inactive
FANCE | SID315448624 | -1.57 | active
FANCE | SID315448624 | 0.51 | inactive
CCDC54 | SID315460468 | -0.41 | inactive
CCDC54 | SID315460468 | 0.21 | inactive
CCDC54 | SID315460468 | 1.03 | inactive
CCDC54 | SID315460468 | 0.8 | inactive
COA1 | SID315457819 | -0.28 | inactive
COA1 | SID315457819 | -1.14 | inactive
COA1 | SID315457819 | -0.61 | inactive
COA1 | SID315457819 | -1.06 | inactive
SULT4A1 | SID315455494 | 0.4 | inactive
SULT4A1 | SID315455494 | -0.08 | inactive
SULT4A1 | SID315455494 | -0.29 | inactive
SULT4A1 | SID315455494 | 0.66 | inactive
MARK1 | SID315449883 | -1.24 | inactive
MARK1 | SID315449883 | -0.32 | inactive
MARK1 | SID315449883 | -0.81 | inactive
MARK1 | SID315449883 | -0.09 | inactive

A portion of the results above:
target | PubChem SID | TNF reporter robust z-score | activity call
KLF9 | SID315447594 | 1.5 | inactive
TARS3 | SID315461579 | -0.8 | inactive
TARS3 | SID315461579 | -0.04 | inactive
TARS3 | SID315461579 | -0.99 | inactive
TARS3 | SID315461579 | -1.08 | inactive
NTRK3 | SID315450321 | 0.88 | inactive
NTRK3 | SID315450321 | 1.96 | inactive
NTRK3 | SID315450321 | 1.28 | inactive
NTRK3 | SID315450321 | -0.44 | inactive
FLAD1 | SID315459740 | 1.05 | inactive
